Literature values, collected in patent US20230117757A1, “COENZYME Q PRODUCTION ACCELERATOR AND METHOD FOR ACCELERATING COENZYME Q PRODUCTION” (priority 2020, published 2023).
At least one compound was matched to its structure with a doubt left.

System: coenzyme Q10 amount in the blood
Conditions: 20 mg/day taken for 12 weeks; cited from earlier work

| Compound | decrease of coenzyme Q10 amount in the blood |
| --- | --- |
| CC[C@H](C)C(=O)O[C@H]1C[C@H](O)C=C2C=C[C@H](C)[C@H](CC[C@@H](O)C[C@@H](O)CC(=O)O)[C@H]21 [pravastatin] | approximately 50% |
| CCC(C)(C)C(=O)O[C@H]1C[C@@H](C)C=C2C=C[C@H](C)[C@H](CC[C@@H]3C[C@@H](O)CC(=O)O3)[C@H]21 [simvastatin] | approximately 50% |
